# Results taken from the supplement of paper PMC8728848.
# The list shows a part of the results.
# B1: GS7807I-bvu-563-22-563 (Bacteroides vulgatus) (protein)
# chain: IFSSCTDDFEKLNTSNIQVDPADLPFAAQCTEPMTYCYPPQQNMFQFWTNLTIDLYGGYFMTPNGNFTNGDMGENRGHSGGMYENYYLHIFNNTRRIIAQCDASGERGLSGVMRIVQAYGTLMTTDAYGPIPYSSILSGENEVYFEFDSQKDLYKAMLEDLSTAITDISAMGADEIAKLKSFDCWCNGDKDLWVKIANTMKLRMALRLSKRETEAGNAGMNLKAIATEAAQNTLATVNKDILIDKSLENEMWLMFNWGDCGFNANLVTIMSGTKDPRQPLYMTLNTGDIKNEAGTTTVAANSQYLGIRFASGLPAKPNSWGNFSGWIQGNNGSSYSMPLPIMKAAEAYFLLAEAKLRWDIGSESVKNLYENGIRVSMTNELAYRGAYAGIKEYPEGAVDAYINGTSTQIDYTDPIKAELSTPAVNKLSVKWDESASNEEKLERIITQKWLALFPLSTEGWAEQRRTGYPRFFPAFVNESNGAVNTEEGVRRVIYSSQAYDANAKGVEGGIKLLDEENSSKFGISGDKGGTHLWWDNADKGNF
# Legend:
# Experiment in all cases: glycan array binding signal (z-score within array); higher = stronger binding
# Details in all cases: glycan notation: IUPAC condensed, linker removed
# [1] = target: Neu5Ac(a2-3)Gal(b1-3)[Fuc(a1-4)]GlcNAc
# How it was run: (§1)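 The binding signal is a Z-score computed within each array and averaged over linkers. Arrays of the same protein sequence at different concentrations or buffers were also averaged together. Data originate from 3228 arrays in the Consortium for Functional Glycomics database, kept only where the protein sequence was available.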
# [2] = target: Neu5Ac(a2-3)Gal(b1-3)[Fuc(a1-4)]GlcNAc(b1-3)Gal(b1-3)[Fuc(a1-4)]GlcNAc
# How it was run: as §1
# [3] = target: Neu5Ac(a2-3)Gal(b1-3)[Fuc(a1-4)]GlcNAc(b1-3)Gal(b1-4)[Fuc(a1-3)]GlcNAc
# How it was run: as §1
# [4] = target: Neu5Ac(a2-3)Gal(b1-3)[GlcNAc(b1-6)]GalNAc
# How it was run: as §1
# [5] = target: Neu5Ac(a2-3)Gal(b1-3)[Neu5Ac(a2-6)]GalNAc
# How it was run: as §1
# [6] = target: Neu5Ac(a2-3)Gal(b1-3)[Neu5Ac(a2-6)]GlcNAc(b1-3)[Fuc(a1-3)[Gal(b1-4)]GlcNAc(b1-6)]Gal(b1-4)Glc
# How it was run: as §1
# [7] = target: Neu5Ac(a2-3)Gal(b1-3)]Neu5Ac(a2-3)Gal(b1-4)]GlcNAc
# How it was run: as §1
# [8] = target: Neu5Ac(a2-3)Gal(b1-4)Glc
# How it was run: as §1
# [9] = target: Neu5Ac(a2-3)Gal(b1-4)GlcNAc
# How it was run: as §1
# [10] = target: Neu5Ac(a2-3)Gal(b1-4)GlcNAc(b1-2)Man
# How it was run: as §1
# [11] = target: Neu5Ac(a2-3)Gal(b1-4)GlcNAc(b1-2)Man(a1-3)[GlcNAc(b1-4)][Neu5Ac(a2-3)Gal(b1-4)GlcNAc(b1-2)Man(a1-6)]Man(b1-4)GlcNAc(b1-4)GlcNAc
# How it was run: as §1
# [12] = target: Neu5Ac(a2-3)Gal(b1-4)GlcNAc(b1-2)Man(a1-3)[Neu5Ac(a2-3)Gal(b1-4)GlcNAc(b1-2)Man(a1-6)]Man(b1-4)GlcNAc(b1-4)GlcNAc
# How it was run: as §1
# [13] = target: Neu5Ac(a2-3)Gal(b1-4)GlcNAc(b1-2)Man(a1-3)[Neu5Ac(a2-3)Gal(b1-4)GlcNAc(b1-2)Man(a1-6)]Man(b1-4)GlcNAc(b1-4)[Fuc(a1-6)]GlcNAc
# How it was run: as §1
# [14] = target: Neu5Ac(a2-3)Gal(b1-4)GlcNAc(b1-2)Man(a1-3)[Neu5Ac(a2-6)Gal(b1-4)GlcNAc(b1-2)Man(a1-6)]Man(b1-4)GlcNAc(b1-4)GlcNAc
# How it was run: as §1
# [15] = target: Neu5Ac(a2-3)Gal(b1-4)GlcNAc(b1-2)[Neu5Ac(a2-3)Gal(b1-4)GlcNAc(b1-4)]Man(a1-3)[GlcNAc(b1-4)][Neu5Ac(a2-3)Gal(b1-4)GlcNAc(b1-2)[Neu5Ac(a2-3)Gal(b1-4)GlcNAc(b1-6)]Man(a1-6)]Man(b1-4)GlcNAc(b1-4)GlcNAc
# How it was run: as §1
# [16] = target: Neu5Ac(a2-3)Gal(b1-4)GlcNAc(b1-2)[Neu5Ac(a2-3)Gal(b1-4)GlcNAc(b1-4)]Man(a1-3)[GlcNAc(b1-4)][Neu5Ac(a2-3)Gal(b1-4)GlcNAc(b1-4)Man(a1-6)]Man(b1-4)GlcNAc(b1-4)GlcNAc
# How it was run: as §1
# [17] = target: Neu5Ac(a2-3)Gal(b1-4)GlcNAc(b1-2)[Neu5Ac(a2-3)Gal(b1-4)GlcNAc(b1-6)]Man(a1-6)[Neu5Ac(a2-3)Gal(b1-4)GlcNAc(b1-2)Man(a1-3)]Man(b1-4)GlcNAc(b1-4)GlcNAc
# How it was run: as §1
# [18] = target: Neu5Ac(a2-3)Gal(b1-4)GlcNAc(b1-2)[Neu5Ac(a2-3)Gal(b1-4)GlcNAc(b1-6)]Man(a1-6)[Neu5Ac(a2-3)Gal(b1-4)GlcNAc(b1-2)Man(a1-3)][GlcNAc(b1-4)]Man(b1-4)GlcNAc(b1-4)GlcNAc
# How it was run: as §1
# [19] = target: Neu5Ac(a2-3)Gal(b1-4)GlcNAc(b1-3)Gal
# How it was run: as §1
# [20] = target: Neu5Ac(a2-3)Gal(b1-4)GlcNAc(b1-3)Gal(b1-3)GlcNAc
# How it was run: as §1
# [21] = target: Neu5Ac(a2-3)Gal(b1-4)GlcNAc(b1-3)Gal(b1-4)GlcNAc
# How it was run: as §1
# [22] = target: Neu5Ac(a2-3)Gal(b1-4)GlcNAc(b1-3)Gal(b1-4)GlcNAc(b1-2)Man(a1-3)[Neu5Ac(a2-3)Gal(b1-4)GlcNAc(b1-3)Gal(b1-4)GlcNAc(b1-2)Man(a1-6)]Man(b1-4)GlcNAc(b1-4)GlcNAc
# How it was run: as §1
# [23] = target: Neu5Ac(a2-3)Gal(b1-4)GlcNAc(b1-3)Gal(b1-4)GlcNAc(b1-3)Gal(b1-4)GlcNAc
# How it was run: as §1
# [24] = target: Neu5Ac(a2-3)Gal(b1-4)GlcNAc(b1-3)Gal(b1-4)GlcNAc(b1-3)Gal(b1-4)GlcNAc(b1-2)Man(a1-3)[Neu5Ac(a2-3)Gal(b1-4)GlcNAc(b1-3)Gal(b1-4)GlcNAc(b1-3)Gal(b1-4)GlcNAc(b1-2)Man(a1-6)]GalNAc
# How it was run: as §1
# [25] = target: Neu5Ac(a2-3)Gal(b1-4)GlcNAc(b1-3)Gal(b1-4)GlcNAc(b1-3)GalNAc
# How it was run: as §1
# [26] = target: Neu5Ac(a2-3)Gal(b1-4)GlcNAc(b1-3)Gal(b1-4)GlcNAc(b1-3)[Neu5Ac(a2-3)Gal(b1-4)GlcNAc(b1-3)Gal(b1-4)GlcNAc(b1-6)]GalNAc
# How it was run: as §1
# [27] = target: Neu5Ac(a2-3)Gal(b1-4)GlcNAc(b1-3)Gal(b1-4)GlcNAc(b1-6)[Gal(b1-3)]GalNAc
# How it was run: as §1
# [28] = target: Neu5Ac(a2-3)Gal(b1-4)GlcNAc(b1-3)Gal(b1-4)[Fuc(a1-3)]GlcNAc
# How it was run: as §1
# [29] = target: Neu5Ac(a2-3)Gal(b1-4)GlcNAc(b1-3)GalNAc
# How it was run: as §1
# [30] = target: Neu5Ac(a2-3)Gal(b1-4)GlcNAc(b1-3)[Neu5Ac(a2-3)Gal(b1-4)GlcNAc(b1-6)]GalNAc
# How it was run: as §1
binder,measurement,setting,value
B1,glycan array binding signal (z-score),[1],0.417
same,glycan array binding signal (z-score),[2],0.599
same,glycan array binding signal (z-score),[3],-1.64
same,glycan array binding signal (z-score),[4],0.671
same,glycan array binding signal (z-score),[5],-0.879
same,glycan array binding signal (z-score),[6],-1.42
same,glycan array binding signal (z-score),[7],-0.616
same,glycan array binding signal (z-score),[8],0.689
same,glycan array binding signal (z-score),[9],0.191
same,glycan array binding signal (z-score),[10],2.84
same,glycan array binding signal (z-score),[11],0.465
same,glycan array binding signal (z-score),[12],1.34
same,glycan array binding signal (z-score),[13],0.738
same,glycan array binding signal (z-score),[14],-0.834
same,glycan array binding signal (z-score),[15],0.043
same,glycan array binding signal (z-score),[16],0.21
same,glycan array binding signal (z-score),[17],0.794
same,glycan array binding signal (z-score),[18],-1.12
same,glycan array binding signal (z-score),[19],0.883
same,glycan array binding signal (z-score),[20],-0.109
same,glycan array binding signal (z-score),[21],0.307
same,glycan array binding signal (z-score),[22],0.172
same,glycan array binding signal (z-score),[23],1.28
same,glycan array binding signal (z-score),[24],-0.119
same,glycan array binding signal (z-score),[25],-0.919
same,glycan array binding signal (z-score),[26],1.48
same,glycan array binding signal (z-score),[27],0.201
same,glycan array binding signal (z-score),[28],-0.778
same,glycan array binding signal (z-score),[29],-0.808
same,glycan array binding signal (z-score),[30],-0.146

# 2 entries drawn at random from those above, as already listed:
binder,measurement,setting,value
B1,glycan array binding signal (z-score),[6],-1.42
same,glycan array binding signal (z-score),[28],-0.778
